Assay [1] addresses T1, Human Prominin-1 (Prom1/CD133), splice variant s2 (human) (UniProt O43490).
T1 sequence: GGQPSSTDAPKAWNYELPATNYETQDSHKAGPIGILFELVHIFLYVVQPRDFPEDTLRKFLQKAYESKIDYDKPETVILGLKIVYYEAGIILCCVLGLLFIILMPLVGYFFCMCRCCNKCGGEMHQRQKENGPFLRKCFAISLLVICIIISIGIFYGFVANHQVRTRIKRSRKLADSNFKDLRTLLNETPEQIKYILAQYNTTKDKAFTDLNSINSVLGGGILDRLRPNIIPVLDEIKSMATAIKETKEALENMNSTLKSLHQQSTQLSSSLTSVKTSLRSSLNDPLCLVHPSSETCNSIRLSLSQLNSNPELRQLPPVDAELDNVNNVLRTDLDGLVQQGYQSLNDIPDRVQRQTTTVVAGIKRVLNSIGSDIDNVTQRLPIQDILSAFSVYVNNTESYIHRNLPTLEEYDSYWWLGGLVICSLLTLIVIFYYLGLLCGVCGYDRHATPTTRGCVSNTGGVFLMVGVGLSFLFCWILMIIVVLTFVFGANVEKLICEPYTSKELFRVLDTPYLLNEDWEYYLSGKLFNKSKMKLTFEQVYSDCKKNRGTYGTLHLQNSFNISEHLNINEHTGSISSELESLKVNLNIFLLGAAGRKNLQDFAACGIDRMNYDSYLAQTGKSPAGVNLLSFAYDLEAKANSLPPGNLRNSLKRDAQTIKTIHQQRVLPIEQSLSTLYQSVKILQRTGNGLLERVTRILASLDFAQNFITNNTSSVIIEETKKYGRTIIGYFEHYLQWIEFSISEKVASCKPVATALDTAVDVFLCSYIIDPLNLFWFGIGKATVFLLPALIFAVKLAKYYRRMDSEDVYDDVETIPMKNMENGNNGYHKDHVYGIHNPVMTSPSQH
Put plainly: co-IP; immunoisolation with anti-CD133 (AC133) magnetic MicroBeads from pre-cleared 0.2% Triton X-100 lysate of Prom1-transfected MDCK cells, 1.5 h at 4°C; anti-FITC MicroBeads as negative control; immunoblot for Prom1 and Arl13b, ratio quantified.

In assay [2] the target is T2, Human Prominin-1 K138Q mutant (human) (UniProt O43490).
T2 sequence: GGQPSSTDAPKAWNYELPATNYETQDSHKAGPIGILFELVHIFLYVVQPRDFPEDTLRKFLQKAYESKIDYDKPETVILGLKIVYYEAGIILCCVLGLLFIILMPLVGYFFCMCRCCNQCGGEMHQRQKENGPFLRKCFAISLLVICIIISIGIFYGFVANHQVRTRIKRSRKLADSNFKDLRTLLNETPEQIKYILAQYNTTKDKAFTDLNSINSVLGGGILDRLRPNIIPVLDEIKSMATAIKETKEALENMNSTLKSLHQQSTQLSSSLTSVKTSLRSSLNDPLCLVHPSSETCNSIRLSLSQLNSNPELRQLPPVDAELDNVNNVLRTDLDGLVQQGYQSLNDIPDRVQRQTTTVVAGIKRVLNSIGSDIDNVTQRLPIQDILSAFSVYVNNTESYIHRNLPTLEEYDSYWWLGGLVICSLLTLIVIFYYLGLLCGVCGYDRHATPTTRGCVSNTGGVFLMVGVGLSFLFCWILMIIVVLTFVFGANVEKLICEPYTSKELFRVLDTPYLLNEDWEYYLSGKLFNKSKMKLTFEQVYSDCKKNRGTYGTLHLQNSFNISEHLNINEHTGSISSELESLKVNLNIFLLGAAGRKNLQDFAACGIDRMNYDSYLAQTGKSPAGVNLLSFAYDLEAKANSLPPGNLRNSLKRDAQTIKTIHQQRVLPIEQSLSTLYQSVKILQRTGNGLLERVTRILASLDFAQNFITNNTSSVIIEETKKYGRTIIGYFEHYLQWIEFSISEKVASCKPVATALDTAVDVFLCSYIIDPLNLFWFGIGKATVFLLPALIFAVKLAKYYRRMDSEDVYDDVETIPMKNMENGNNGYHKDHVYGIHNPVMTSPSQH
The description is as above.

Assay [3] deals with ADP-ribosylation factor-like protein 13B (Arl13b) (dog (endogenous in MDCK)). In words: co-IP; immunoisolation with anti-Arl13b pAb and uMACS Protein A MicroBeads from pre-cleared 0.2% Triton X-100 lysate of Prom1-transfected MDCK cells, 4°C; immunoblot for Prom1 and Arl13b. On the technique in general: In western blotting, separated proteins are transferred to a membrane and probed.

These are yes or no findings as the source states them, for the method shown. In cells and extracts the contact can be indirect. Binding can be weak; no strength is given.

In the case of “ADP-ribosylation factor-like protein 13B (Arl13b) (dog (endogenous in MDCK))”, the binding result in assay [1] and in assay [2] was “binds” each time.

B1: Human Prominin-1 (Prom1/CD133), splice variant s2 (protein, UniProt O43490 20-865)
chain: GGQPSSTDAPKAWNYELPATNYETQDSHKAGPIGILFELVHIFLYVVQPRDFPEDTLRKFLQKAYESKIDYDKPETVILGLKIVYYEAGIILCCVLGLLFIILMPLVGYFFCMCRCCNKCGGEMHQRQKENGPFLRKCFAISLLVICIIISIGIFYGFVANHQVRTRIKRSRKLADSNFKDLRTLLNETPEQIKYILAQYNTTKDKAFTDLNSINSVLGGGILDRLRPNIIPVLDEIKSMATAIKETKEALENMNSTLKSLHQQSTQLSSSLTSVKTSLRSSLNDPLCLVHPSSETCNSIRLSLSQLNSNPELRQLPPVDAELDNVNNVLRTDLDGLVQQGYQSLNDIPDRVQRQTTTVVAGIKRVLNSIGSDIDNVTQRLPIQDILSAFSVYVNNTESYIHRNLPTLEEYDSYWWLGGLVICSLLTLIVIFYYLGLLCGVCGYDRHATPTTRGCVSNTGGVFLMVGVGLSFLFCWILMIIVVLTFVFGANVEKLICEPYTSKELFRVLDTPYLLNEDWEYYLSGKLFNKSKMKLTFEQVYSDCKKNRGTYGTLHLQNSFNISEHLNINEHTGSISSELESLKVNLNIFLLGAAGRKNLQDFAACGIDRMNYDSYLAQTGKSPAGVNLLSFAYDLEAKANSLPPGNLRNSLKRDAQTIKTIHQQRVLPIEQSLSTLYQSVKILQRTGNGLLERVTRILASLDFAQNFITNNTSSVIIEETKKYGRTIIGYFEHYLQWIEFSISEKVASCKPVATALDTAVDVFLCSYIIDPLNLFWFGIGKATVFLLPALIFAVKLAKYYRRMDSEDVYDDVETIPMKNMENGNNGYHKDHVYGIHNPVMTSPSQH
For B1, the binding result in assay [3] was “binds”.

B2: Human Prominin-1 K138Q mutant (protein, UniProt O43490 20-865)
chain: GGQPSSTDAPKAWNYELPATNYETQDSHKAGPIGILFELVHIFLYVVQPRDFPEDTLRKFLQKAYESKIDYDKPETVILGLKIVYYEAGIILCCVLGLLFIILMPLVGYFFCMCRCCNQCGGEMHQRQKENGPFLRKCFAISLLVICIIISIGIFYGFVANHQVRTRIKRSRKLADSNFKDLRTLLNETPEQIKYILAQYNTTKDKAFTDLNSINSVLGGGILDRLRPNIIPVLDEIKSMATAIKETKEALENMNSTLKSLHQQSTQLSSSLTSVKTSLRSSLNDPLCLVHPSSETCNSIRLSLSQLNSNPELRQLPPVDAELDNVNNVLRTDLDGLVQQGYQSLNDIPDRVQRQTTTVVAGIKRVLNSIGSDIDNVTQRLPIQDILSAFSVYVNNTESYIHRNLPTLEEYDSYWWLGGLVICSLLTLIVIFYYLGLLCGVCGYDRHATPTTRGCVSNTGGVFLMVGVGLSFLFCWILMIIVVLTFVFGANVEKLICEPYTSKELFRVLDTPYLLNEDWEYYLSGKLFNKSKMKLTFEQVYSDCKKNRGTYGTLHLQNSFNISEHLNINEHTGSISSELESLKVNLNIFLLGAAGRKNLQDFAACGIDRMNYDSYLAQTGKSPAGVNLLSFAYDLEAKANSLPPGNLRNSLKRDAQTIKTIHQQRVLPIEQSLSTLYQSVKILQRTGNGLLERVTRILASLDFAQNFITNNTSSVIIEETKKYGRTIIGYFEHYLQWIEFSISEKVASCKPVATALDTAVDVFLCSYIIDPLNLFWFGIGKATVFLLPALIFAVKLAKYYRRMDSEDVYDDVETIPMKNMENGNNGYHKDHVYGIHNPVMTSPSQH
On to B2, for which the binding entry in assay [3] was “binds”.

The values above are taken from publication PMC6331727.
